# From the supplement of paper PMC8007513
# The list shows a part of the results. Many values rest on one well or one pass, so single values are uncertain.
# System: Saccharomyces cerevisiae BY4743
# Assay: growth (OD600) relative to untreated control; higher = less growth inhibition
# Conditions: compound concentration: 133 uM; 20 h
# Description: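 NMCCC compounds (133 uM, no IPBC) tested alone against Saccharomyces cerevisiae BY4743 in YPD, 96-well plates, starting OD600 ~0.1. Growth was read as OD600 at 20 h and expressed as % of the untreated control. Single pass.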
row,Compound,growth
1,CCOC(=O)c1nnc2ccc(Cl)nn12,93.3%
2,Cc1cc(C)n(CCNC(=O)C(=O)Nc2ccc3c(c2)nc(C(F)(F)F)n3C)n1,91.9%
3,CC1=CC=C(CNC(=O)CC\C2=N\[S](=O)(=O)C3=CC=CC=C3N2)O1,103%
4,Cc1nn(Cn2cc(Cl)cn2)c(C)c1NC(=O)c1ccc(Cl)cc1,110%
5,Cc1oc(-c2cccs2)nc1COC(=O)c1csc(S(N)(=O)=O)c1,114%
6,COc1ccccc1/N=C1\C(Cl)=C(O)OC1OC(=O)c1ccccc1Br (stereo unspecified),107%
7,COc1cc(Br)c(OC)c(C(=O)NCc2c(C)nn(-c3ccccc3)c2C)c1,92.6%
8,CCn1nc(C)c(CNS(=O)(=O)c2ccc(C)cc2C)c1C,99.3%
9,NCCc1c(-c2ccccc2)nn(-c2ccccc2)c1O,111%
10,COc1ccccc1NC(=O)c1ccc(NC(=O)CSc2nnc(C)n2N)cc1,98.4%
11,Cn1ccc(NC(=O)CCCc2nc(O)c3ccccc3n2)n1,106%
12,CN(Cc1ccc(Cl)s1)C(=O)CSc1n[nH]c(-c2cccs2)n1,101%
13,Cc1ccc(NC(=O)CN(C)C(C)c2ccc(-n3cncn3)cc2)cc1C (stereo unspecified),107%
14,COC1=CC=CC=C1NC(=O)CS\C2=N\C(=C/C(=O)N2C3=CC=CC=C3OC)O,95.7%
15,COc1ccc(NC(=O)CSc2nc3nc(C)ccc3o2)c(OC)c1,104%
16,CCCC(=O)N(c1nc(C)c(C(C)=O)s1)C1CC1,98.4%
